{"source": "patent US5320957", "biological_target": "T1, M.DdeI methyltransferase (clone pDdeM1.6) (Desulfovibrio desulfuricans) (UniProt P05302)", "T1 sequence (looked up, limits assumed)": "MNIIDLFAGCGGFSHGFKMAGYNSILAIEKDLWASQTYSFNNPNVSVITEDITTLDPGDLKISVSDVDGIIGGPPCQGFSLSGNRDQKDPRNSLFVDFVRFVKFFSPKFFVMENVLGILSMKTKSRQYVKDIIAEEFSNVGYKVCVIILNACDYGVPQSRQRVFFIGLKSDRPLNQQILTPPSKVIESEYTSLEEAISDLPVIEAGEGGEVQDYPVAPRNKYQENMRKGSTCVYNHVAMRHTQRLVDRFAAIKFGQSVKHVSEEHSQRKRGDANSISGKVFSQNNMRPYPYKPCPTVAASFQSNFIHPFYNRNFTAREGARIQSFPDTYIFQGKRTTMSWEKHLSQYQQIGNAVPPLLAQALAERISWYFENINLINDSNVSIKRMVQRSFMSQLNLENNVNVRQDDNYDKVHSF", "experiment": "activity assay", "settings": "methylation of the lambda MluI fragment blocks Sau3A cleavage (new 652 bp fragment); cytosine methylase; protein in a lysate after overexpression; protein details: expressed from plasmid clones in E. coli", "note": "Tags and fusion partners may be left off the protein sequences shown.", "data": [{"sequence": "GATCTCAG (double strand) [lambda DNA overlapping Sau3A/DdeI site (position 2532)]", "values": [{"measurement": "activity on this sequence", "result": "active"}]}]}
